PubChem BioAssay AID504786, Drosophila RNAi Screening Center – 2011

Aim: 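Fly genes required for HIF-dependent transcription when hypoxia is mimicked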 (primary screen)
Cells: Drosophila S2 cells with a stable HIF luciferase reporter
Reagents: long dsRNA against Drosophila genes, about 0.2 µg dsRNA per well of a 384-well plate
Time to read-out: three days of knock-down, then 20 h of DFO before reading
Treatment: desferrioxamine (DFO) at 100 µM, an iron chelator that mimics hypoxia, for 20 h
Detection: 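HIF reporter luminescence in cells given 100 µM DFO for 20 h, using the mouse ldh-a hypoxia-response element, scored as per-plate z-scores; higher means greater loss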
Reading the numbers: z-score: higher = stronger loss of HIF reporter signal
The deposit covers about 21,000 reagents; this is an unselected part of those that have a named target and a result. 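Primary screen; positive scores mean lost reporter signal, so the sign may be inverted from the usual convention.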 Names joined by + are all predicted targets of the reagent. Reagent sequences are not shown.

Depletion of CG12643 [DRSC17849] resulted in: z-score, replicate 1 = -0.2; z-score, replicate 2 = 0.3.
CG33722 + CG18749 [DRSC12674] gave z-score, replicate 1 = -0.2; z-score, replicate 2 = -0.3.
With knock-down of CG33722 + CG18749 [DRSC15386], the screen gave z-score, replicate 1 = -0.1; z-score, replicate 2 = 0.3.
Eh (Eclosion hormone) [DRSC16660] gave z-score, replicate 1 = -0.5; z-score, replicate 2 = 0.1.
Knock-down of CG15473 [DRSC18056] resulted in: z-score, replicate 1 = -0.3; z-score, replicate 2 = -0.6.
Knock-down of CG1774 [DRSC15258] came out at: z-score, replicate 1 = -0.1; z-score, replicate 2 = -0.3.
With knock-down of hmw (hemingway) [DRSC16277], the record shows z-score, replicate 1 = -0.2; z-score, replicate 2 = -0.5.

Laid out differently: results already given.
predicted target,DRSC id,"z-score, replicate 1","z-score, replicate 2"
Eh (Eclosion hormone),DRSC16660,-0.5,0.1
CG15473,DRSC18056,-0.3,-0.6

The listing continues.
For CG34046 (retired record) [DRSC14075] the deposit lists z-score, replicate 1 = -0.8; z-score, replicate 2 = -0.9.
After knock-down of CG6324 [DRSC19985], the screen gave z-score, replicate 1 = -0.2; z-score, replicate 2 = -0.7.
For CG14881 [DRSC15005] the deposit lists z-score, replicate 1 = -0.3; z-score, replicate 2 = 0.1.
Depletion of IKKepsilon (I-kappaB kinase epsilon) [DRSC03550] gave: z-score, replicate 1 = -0.3; z-score, replicate 2 = -0.6.
Knock-down of Or23a (Odorant receptor 23a) [DRSC00767] came out at: z-score, replicate 1 = -0.2; z-score, replicate 2 = -0.5.
With knock-down of CG8888 [DRSC07294], the screen gave z-score, replicate 1 = -0.4; z-score, replicate 2 = -0.5.
After knock-down of CG8888 [DRSC07295], the record shows z-score, replicate 1 = -0.5; z-score, replicate 2 = -0.7.
For prc (pericardin) [DRSC11385], the values are z-score, replicate 1 = -0.3; z-score, replicate 2 = -0.2.
nAChRbeta2 (nicotinic Acetylcholine Receptor beta2) [DRSC17010] gave z-score, replicate 1 = -0.2; z-score, replicate 2 = -0.5.
